Source: PubChem BioAssay AID1053208 (Peter MacCallum Cancer Centre, 2014)
The whole screen tested about 17,000 reagents; shown is a part drawn at random. 788 of all reagents (4.7%) were called active. 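Calls rest on z-score classes alone; an extra cut-off of viability at most 70% of control was not applied to them.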 Not all columns of the deposit are shown.

Test: 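Synthetic lethal interactions between gene loss and doxorubicin in osteosarcoma cells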 (primary screen)
Cell system: mouse osteosarcoma cells, early-passage culture from an engineered mouse model of fibroblastic bone tumour
Reagent: siRNA pool against mouse genes, 40 nM
Duration: about 120 h (48 h before drug, then 72 h with drug)
Conditions: doxorubicin 100 nM for 72 h, roughly 30-40% inhibitory dose
Read-out: 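Viability read as ATP luminescence after 72 h of 100 nM doxorubicin or none, duplicate wells averaged, scaled to non-targeting siRNA, then expressed as robust z-scores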
Reading the numbers: viability z-score with doxorubicin: higher = more viable cells under doxorubicin; viability z-score without drug: higher = more viable cells with knock-down alone
Hit rule: 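a pool counts as active when its viability z-score with doxorubicin is -2 or below and its z-score without drug lies between -2 and 2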

The first 3 records as a preview:
Cndp2 (CNDP dipeptidase 2) — combined z-score class = no change with or without drug; viability z-score with doxorubicin = -1.35; viability z-score without drug = 0.34; outcome = inactive
Il15ra (interleukin 15 receptor, alpha chain) — combined z-score class = no change with or without drug; viability z-score with doxorubicin = -0.22; viability z-score without drug = 1.85; outcome = inactive
Tnnt2 (troponin T2, cardiac) — combined z-score class = no change with or without drug; viability z-score with doxorubicin = 0.67; viability z-score without drug = 1.18; outcome = inactive

The listing, from the first entry:
Cndp2 (CNDP dipeptidase 2) — combined z-score class = no change with or without drug; viability z-score with doxorubicin = -1.35; viability z-score without drug = 0.34; outcome = inactive
Il15ra (interleukin 15 receptor, alpha chain) — combined z-score class = no change with or without drug; viability z-score with doxorubicin = -0.22; viability z-score without drug = 1.85; outcome = inactive
Tnnt2 (troponin T2, cardiac) — combined z-score class = no change with or without drug; viability z-score with doxorubicin = 0.67; viability z-score without drug = 1.18; outcome = inactive
Spry4 (sprouty RTK signaling antagonist 4) — combined z-score class = no change with or without drug; viability z-score with doxorubicin = 1.46; viability z-score without drug = 0.84; outcome = inactive
Rbm34 (RNA binding motif protein 34) — combined z-score class = low cell count without drug only; viability z-score with doxorubicin = -0.22; viability z-score without drug = -7.42; outcome = inactive
Nvl (nuclear VCP-like) — combined z-score class = no change with or without drug; viability z-score with doxorubicin = 0.11; viability z-score without drug = -1.52; outcome = inactive
Prr15l (proline rich 15-like) — combined z-score class = no change with or without drug; viability z-score with doxorubicin = -1.46; viability z-score without drug = 0.34; outcome = inactive
Omg (oligodendrocyte myelin glycoprotein) — combined z-score class = no change with or without drug; viability z-score with doxorubicin = -0.45; viability z-score without drug = 0.34; outcome = inactive
Pde7b (phosphodiesterase 7B) — combined z-score class = no change with or without drug; viability z-score with doxorubicin = 0.34; viability z-score without drug = -0.84; outcome = inactive
Ints8 (integrator complex subunit 8) — combined z-score class = no change with or without drug; viability z-score with doxorubicin = -0.45; viability z-score without drug = -1.01; outcome = inactive
Cdc7 (cell division cycle 7) — combined z-score class = no change with or without drug; viability z-score with doxorubicin = 0; viability z-score without drug = -1.18; outcome = inactive
Zdhhc6 (zinc finger, DHHC domain containing 6) — combined z-score class = no change with or without drug; viability z-score with doxorubicin = -0.34; viability z-score without drug = -0.17; outcome = inactive
Aqp4 (aquaporin 4) — combined z-score class = no change with or without drug; viability z-score with doxorubicin = -1.35; viability z-score without drug = -0.84; outcome = inactive
Or52e4 (olfactory receptor family 52 subfamily E member 4) — combined z-score class = no change with or without drug; viability z-score with doxorubicin = -0.22; viability z-score without drug = -1.52; outcome = inactive
Pgap1 (post-GPI attachment to proteins 1) — combined z-score class = no change with or without drug; viability z-score with doxorubicin = -0.67; viability z-score without drug = 1.85; outcome = inactive
Rab6a (RAB6A, member RAS oncogene family) — combined z-score class = no change with or without drug; viability z-score with doxorubicin = -0.79; viability z-score without drug = -0.17; outcome = inactive
Gng3 (guanine nucleotide binding protein (G protein), gamma 3) — combined z-score class = high cell count with and without drug; viability z-score with doxorubicin = 2.02; viability z-score without drug = 2.36; outcome = inactive
Ppp4r4 (protein phosphatase 4, regulatory subunit 4) — combined z-score class = no change with or without drug; viability z-score with doxorubicin = -0.9; viability z-score without drug = -0.17; outcome = inactive
Dhrs7 (dehydrogenase/reductase 7) — combined z-score class = no change with or without drug; viability z-score with doxorubicin = 1.46; viability z-score without drug = 1.69; outcome = inactive
Tspo2 (translocator protein 2) — combined z-score class = no change with or without drug; viability z-score with doxorubicin = 1.35; viability z-score without drug = 1.18; outcome = inactive
Cirbp (cold inducible RNA binding protein) — combined z-score class = no change with or without drug; viability z-score with doxorubicin = -1.01; viability z-score without drug = 0.84; outcome = inactive
Edn1 (endothelin 1) — combined z-score class = no change with or without drug; viability z-score with doxorubicin = 0.56; viability z-score without drug = 0.17; outcome = inactive
Tkt (transketolase) — combined z-score class = no change with or without drug; viability z-score with doxorubicin = 0.67; viability z-score without drug = 0.51; outcome = inactive
Gm4793 (predicted gene 4793) — combined z-score class = no change with or without drug; viability z-score with doxorubicin = -1.12; viability z-score without drug = -0.51; outcome = inactive
Uts2b (urotensin 2B) — combined z-score class = low cell count with doxorubicin only; viability z-score with doxorubicin = -2.7; viability z-score without drug = -0.34; outcome = active
Rnf31 (ring finger protein 31) — combined z-score class = low cell count with and without drug; viability z-score with doxorubicin = -2.7; viability z-score without drug = -2.53; outcome = inactive
Zfp445 (zinc finger protein 445) — combined z-score class = no change with or without drug; viability z-score with doxorubicin = 0.9; viability z-score without drug = 0.34; outcome = inactive
Chd9 (chromodomain helicase DNA binding protein 9) — combined z-score class = no change with or without drug; viability z-score with doxorubicin = 0.45; viability z-score without drug = -0.17; outcome = inactive
